These are yes or no findings as the source states them, for the method shown. In cells and extracts the contact can be indirect. Some binding calls cover weakened binding; strength is not graded here. Sequences can lack the tags named with a protein.
Key:
[1] = target: Bromodomain-containing protein 2 (BRD2) (Homo sapiens (Human)) (UniProt P25440); test: co-immunoprecipitation, protein gel image (FIG. 21)
[2] = target: Bromodomain-containing protein 2 (BRD2) (Homo sapiens (Human)) (UniProt P25440); test: co-immunoprecipitation in 293A cells, western blot

Sequences of proteins named here, by UniProt entry; tags and fusion partners are left off. A change or cut given only in a name is not applied to a line headed by its entry.
UniProt P25440: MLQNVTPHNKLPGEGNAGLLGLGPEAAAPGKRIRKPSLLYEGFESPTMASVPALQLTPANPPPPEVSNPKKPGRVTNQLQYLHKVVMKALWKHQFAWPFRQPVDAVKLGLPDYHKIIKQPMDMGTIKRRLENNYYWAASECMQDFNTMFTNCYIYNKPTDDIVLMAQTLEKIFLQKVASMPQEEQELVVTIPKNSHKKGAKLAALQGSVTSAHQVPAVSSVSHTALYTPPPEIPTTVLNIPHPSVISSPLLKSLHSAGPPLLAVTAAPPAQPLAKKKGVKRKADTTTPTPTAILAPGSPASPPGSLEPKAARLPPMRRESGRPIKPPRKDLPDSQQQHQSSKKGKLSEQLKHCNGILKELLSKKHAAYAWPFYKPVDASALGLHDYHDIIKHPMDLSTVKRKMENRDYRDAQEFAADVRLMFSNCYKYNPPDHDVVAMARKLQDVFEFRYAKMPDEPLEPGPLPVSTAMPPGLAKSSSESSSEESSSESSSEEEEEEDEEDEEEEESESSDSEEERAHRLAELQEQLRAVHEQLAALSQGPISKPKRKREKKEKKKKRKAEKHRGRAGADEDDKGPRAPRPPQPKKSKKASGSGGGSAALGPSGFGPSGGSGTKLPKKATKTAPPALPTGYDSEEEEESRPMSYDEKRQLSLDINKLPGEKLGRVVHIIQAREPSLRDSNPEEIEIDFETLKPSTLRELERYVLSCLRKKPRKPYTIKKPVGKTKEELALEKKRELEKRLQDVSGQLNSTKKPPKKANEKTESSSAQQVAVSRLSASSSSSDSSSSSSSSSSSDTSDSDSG

binding [1]: binds
binding [2]: binds
B1: HDAC11 (histone deacetylase 11) (enzyme)
chain: MLHTTQLYQHVPETRWPIVYSPRYNITFMGLEKLHPFDAGKWGKVINFLKEEKLLSDSMLVEAREASEEDLLVVHTRRYLNELKWSFAVATITEIPPVIFLPNFLVQRKVLRPLRTQTGGTIMAGKLAVERGWAINVGGGFHHCSSDRGGGFCAYADITLAIKFLFERVEGISRATIIDLDAHQGNGHERDFMDDKRVYIMDVYNRHIYPGDRFAKQAIRRKVELEWGTEDDEYLDKVERNIKKSLQEHLPDVVVYNAGTDILEGDRLGGLSISPAGIVKRDELVFRMVRGRRVPILMVTSGGYQKRTARIIADSILNLFGLGLIGPESPSVSAQNSDTPLLPPAVP
